Laboratory results reported in patent US20230250131A1, “HYDROXYSTEROID COMPOUNDS” (Epirium Bio Inc., priority 2022, published 2023).
Where “and” joins values, the source holds several entries; their conditions need not be identical. Identical values can stand only once.

System: PGC-1α
Assay: PGC-1α assay in differentiated C2C12 cells (ELISA-type antibody detection, absorbance at 450 nm)
Type: cell-based
Conditions: each compound tested at 0.01 nM, DMSO control as 100%
Protocol: The compounds of Table 2 were synthesized and tested in a PGC-1α assay.
Culture conditions: DMEM containing 25 mM glucose with 10% FBS supplementation; grown at 37° C. and 5% CO2.
Assay Conditions: C2C12 cells were cultured in DMEM supplemented in 10% FBS up to 80% confluence. The cells were further trypsinized and seeded into a 96 well plate at a density of 5000 cells/well (well volume—100 μL) (Day 0). Following attachment, the cells were allowed to reach 80-90% confluence in the plate (typically 48 hours post seeding) and further differentiated using DMEM+2% Horse Serum (200 μL/well). The media was changed every day or at least every alternate day for 5 days to allow myoblasts to differentiate into myotubes. On day 7 (post seeding), the cells were treated with standards and test compounds for PGC-1α assay.
PGC-1α assay: For the detection of PGC-1α, the cells were incubated with […] primary antibody (Merck, WH10010891M3) in PBS-T containing 5% BSA at 4° C. overnight. The cells were then washed three times with PBS-T for 5 minutes and incubated with 1:1000 dilution secondary antibody (Anti-rabbit IgG, HRP-linked Antibody, Cell Signaling) in PBS-T with 100% BSA for 1 hour at RT. […] Then the plate was read at 450 nm using ELISA plate reader and absorbance recorded. […] was calculated using DMSO control as 100%. […]

[2H]C([2H])([2H])C(=O)[C@@]1([2H])CCC2C3CC=C4C[C@@H](O)CC[C@]4(C)C3[C@@H](O)C[C@@]21C (some centres unmarked)
Single point PGC1-Alpha Assay: Activity (%) (C2C12 myotubes, individual experiments (Exp. 1-3), 10 pM): 141% and 106% and 99%
activity at 10 pM (Mus musculus, C2C12, C2C12 myotubes, average over experiments, read-out: Single point PGC1-Alpha Assay: Average Activity (%)): 115%
